Experimental data reported in patent US12629410B2 (priority 2019, dated 2026).

Assay: general procedure: hybrid (solid and solution phase) peptide synthesis; Fmoc-Lys-Wang resin; symmetric anhydride (bromoacetic acid); diphenylphosphoryl azide (core); NHS est
Conditions: for difficulty met: whole synthesis
[1] = conjugation step, analytical RP-HPLC

(CGPIPVLDENGLFAPGPC)8(Lys)4(Lys)2Lys-β-Ala-COOH
difficulty met: yielded a heterogeneous compound because of reversible disulfide bonding

Ac-β-Ala-Glu[Glu(OSu)2]2 core linked to 4 x cyclic thioether peptide mimic Core Peptide 2 (GPIPVLDENGLFAPGPC; thioether cyclized, tetrameric MAP)
final HPLC purity [1]: 99% of the total area | final purity (method not given) [1]: >95%

(CGPIPVLDENGLFAPGPC)4(Lys)2Lys-β-Ala-COOH
difficulty met: This resulted in a heterogenous preparation

Br-Ac-Gly-Pro-Ile-Pro-Val-Leu-Asp-Glu-Asn-Gly-Leu-Phe-Ala-Pro-Gly-Pro-Cys-Lys-OH (GPIPVLDENGLFAPGPC; thioether cyclized, C-terminal Lys)
final HPLC purity (cyclisation step, analytical RP-HPLC): >90%
